From PMC12670160, “A drug-repurposing screen of FDA- and EMA-approved drugs identifies two NF-κB inhibitors active against eumycetoma” (Journal of Antimicrobial Chemotherapy, 2025)
Where a name gives a salt, the structure may show the parent alone. The whole screen tested about 5,300 compounds, of which about 130 (2.5%) showed an effect of 50% or more. The list shows a part of the results.

Tested on: M. mycetomatis strain mm55
Details: primary screen, metabolic activity vs growth control; 96 h, 2 µM; inhibitor

First: CCOC(=O)[C@H](CCc1ccccc1)N[C@@H](C)C(=O)N1[C@H](C(=O)O)C[C@@H]2CCC[C@@H]21 [ONC0004306, ramipril]
Second: O=C(CCCl)NCc1ccccc1 [ONC0003981, beclamide]
The “% viability” value of the first is higher: 82.17% for the first, 60.69% for the second.

Compared with `NC(C(=O)O)c1nnn[nH]1` (stereo not drawn) [ONC0002522, tetrazol5ylglyciners], `NC(=O)c1ncn([C@@H]2O[C@H](CO)[C@@H](O)[C@H]2O)n1` [ONC0002426, ribavirin] is higher in “% viability” value: 80.86% for the first, 122.7% for the second.

Compared with `CCCCCCCCCCCCCCCCNc1ccc(C(=O)O)cc1` [ONC0000364, cetaben], `CCC(CC)(CC(=O)Nc1cccc(/C=C/c2nc(C3CCC3)cs2)c1)C(=O)O` [ONC0001647, cinalukast] is lower in “% viability” value: 78.57% for the first, 77.68% for the second.

Compared with `O=C(NCc1ccncc1)C12CC3CC(C1)CC(c1ccc(Cl)cc1)(C3)C2` [ONC0005179, abc294640], `COc1nccc(-c2c(-c3ccc(F)cc3)ncn2[C@H]2CC[C@H](O)CC2)n1` [ONC0001733, sb239063] is lower in “% viability” value: 129.6% for the first, 80.99% for the second.

Going from `COc1cc(C(=O)c2c(C)oc3c(O)c(OC)ccc23)cc(OC)c1OC` [ONC0001135, bnc105] to `COc1cc2ncnc(Oc3cccc(NC(=O)Nc4cc(C(C)(C)C(F)(F)F)on4)c3)c2cc1OC` [ONC0004356, cep32496], the “% viability” value rises from 66.38% to 100.9%.

Compared with `COc1c(C)cnc(Cn2cc(C#CCC(C)(C)O)c3c(Cl)nc(N)nc32)c1C` [ONC0000074, ec144], `CNC(=O)[C@@H](Cc1ccccc1)N(C)C(=O)[C@@H](Cc1ccc2ccccc2c1)N(C)C(=O)/C=C/CC(C)(C)N` [ONC0003613, tabimorelin fumarate] is lower in “% viability” value: 147.5% for the first, 61.16% for the second.

Going from `O=c1c(O)c(-c2ccc(O)c(O)c2)oc2cc(O)ccc12` [ONC0005251, fisetin fustel] to `CN[C@H](CC(C)C)C(=O)N[C@H]1C(=O)N[C@@H](CC(N)=O)C(=O)N[C@H]2C(=O)N[C@H]3C(=O)N[C@H](C(=O)N[C@H](C(=O)O)c4cc(O)cc(O)c4-c4cc3ccc4O)[C@H](O)c3ccc(c(Cl)c3)Oc3cc2cc(c3O[C@@H]2O[C@H](CO)[C@@H](O)[C@H](O)[C@H]2O[C@H]2C[C@](C)(N)[C@H](O)[C@H](C)O2)Oc2ccc(cc2Cl)[C@H]1O` [ONC0003670, vancomycin hydrochloride], the “% viability” value falls from 168.5% to 56.74%.

In the case of `CNS(=O)(=O)Cc1ccc2[nH]cc(CCN(C)C)c2c1` [ONC0003923, sumatriptan], the “% viability” value is reported as 67.04%.
